The values below are quoted from earlier work in article PMC10793096 (Acta Pharmaceutica Sinica. B, 2023).

Broadly, the pIC50 is the negative decadic logarithm of the IC50, by convention in mol/L.

pIC50: −log10 of the molar value.

The test system of this series is MCF-7 (human breast adenocarcinoma) cell line. The note with it: read-out: IC50 MCF-7; taken from the literature; cited from earlier work.

Turning to `CC(=O)O[C@H]1C(=O)[C@@]2(C)[C@H]([C@H](OC(=O)c3ccccc3)[C@]3(O)C[C@H](OC(=O)[C@H](O)[C@@H](NC(=O)c4ccccc4)c4ccccc4)C(C)=C1C3(C)C)[C@]1(OC(C)=O)CO[C@@H]1C[C@@H]2O` [Paclitaxel], the pIC50 is 8.56.
